Experimental data published in PubChem BioAssay AID1347075 (National Center for Advancing Translational Sciences (NCATS), 2019).
The campaign covered roughly 400,000 compounds. About 5,500 (1.4%) were called active. This list was built around the results that the source calls inconclusive (neither active nor inactive); the mix of calls is not that of the screen. Calls follow the shape of the dose curve; as a rule, active = well fitted cell-killing curve with a large enough effect; inconclusive = small, poorly fitted or top-dose-only effect, or effect the other way; inactive = flat fitted curve, though single readings scatter. A potency beside an inconclusive call is a rough fit, not a confirmed value.
% is scaled to controls: 0 for no effect and ±100 for the full control effect; potency is read from the fitted curve at half-maximal effect.

Test: qHTS assay for MDR1-selective chemotherapeutics: Primary screen using the parental adenocarcinoma cell KB-3-1; also: nearly all actives have a fitted effect of over 60% in size
Details: KB-3-1 viability, CellTiter-Glo ATP luminescence, 72 h; activity change, negative = cytotoxic: at 46.1 µM (top of the series)
How it was run: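 Cells are dispensed, compounds pinned in, plates held at 37 °C for 72 h, then CellTiter-Glo is added and luminescence read after 10 minutes. Cell line: parental KB-3-1 in phenol-red-free DMEM, 10% FBS.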
With `CCCCOc1ccc(C(=O)N(Cc2ccc(C(C)C)cc2)C2CCS(=O)(=O)C2)cc1` (centres undefined) the Potency was inconclusive: 29.1 µM [cytotoxic, single point]. In the case of `CCOc1ccc(Cl)cc1-c1cc(C(=O)Nc2cc(OC)c(OC)c(OC)c2)[nH]n1`, the Potency is reported as inconclusive: 29.1 µM [cytotoxic, single point]. With `CCOC(=O)N1CCN(c2c(NCc3cccs3)c(=O)c2=O)CC1` the Potency was active: 6.51 µM. In the case of `CCC(C)NS(=O)(=O)c1ccc(S(=O)(=O)N2CCCC3(CCCCC3)C2)cc1` (centres undefined), the Potency is reported as active: 5.8 µM. In the case of `Cc1cccc(OCc2nc(-c3cccnc3)no2)c1`, the Potency is reported as inconclusive: 18.4 µM [cytotoxic, single point]. In the case of `COC(=O)c1ccc(/C=C(\C#N)C(=O)NC(C)c2ccccc2)cc1` (centres undefined), the Potency is reported as inconclusive: 29.1 µM [cytotoxic, single point]. With `CCOc1ccc(NS(=O)(=O)c2csc(C(N)=O)c2)cc1` the “activity change, negative = cytotoxic” value was inactive: -28.6%. With `Cc1cc(C)c2c(ccc3ccccc32)n1` the “activity change, negative = cytotoxic” value was inactive: 0.777%. With `COc1cc(-c2cc(O)c(-c3ccc4ccccc4n3)c(=O)[nH]2)cc(OC)c1OC` the Potency was inconclusive: 18.4 µM [cytotoxic, single point]. With `Cn1cc(S(=O)(=O)Nc2cccc3ccccc23)c(=O)n(C)c1=O` the “activity change, negative = cytotoxic” value was inactive: -9.12%. In the case of `CC(C)Cc1ccc(C(C)/C=C2/CCC(CN3CCCCC3)C2=O)cc1` (centres undefined), the Potency is reported as inconclusive: 29.1 µM [cytotoxic, single point]. For `CCN1C(=O)c2cccc3c(S(=O)(=O)N(C)C)ccc1c23`, the “activity change, negative = cytotoxic” value was inactive: 2.92%. With `CC1CC1c1ccc(/C=C(\C#N)C(=O)Nc2ccc(Cl)cc2)o1` (centres undefined) the Potency was inconclusive: 29.1 µM [cytotoxic, single point]. With `CN1C(=O)c2ccccc2Sc2ccc(C(=O)O)cc21` the “activity change, negative = cytotoxic” value was inactive: -1.74%. In the case of `C[C@]12c3[nH]c4cc(-c5ccco5)ccc4c3CCN1C(=O)[C@@H](CC(=O)NCCC1=CCCCC1)C[C@@H]2C(=O)N1CCOCC1`, the “activity change, negative = cytotoxic” value is reported as inactive: 0%. With `O=C(O)CCC(=O)N1CCc2cc(S(=O)(=O)N3CC=C(c4ccccc4)CC3)ccc21` the Potency was inconclusive: 7.31 µM [rising, partial curve, poor fit]. With `O=C(COC(=O)c1ccccc1C(=O)c1ccc(Cl)c([N+](=O)[O-])c1)NC1CCCCCC1` the Potency was inconclusive: 18.4 µM [cytotoxic, single point]. For `CCCCN1C(=O)C2(NNc3ccccc3O2)c2ccccc21` (centres undefined), the Potency was inconclusive: 29.1 µM [cytotoxic, single point]. With `CCCCN(C(=O)C(C)Oc1ccc(Br)cc1)c1c(N)n(Cc2ccccc2)c(=O)[nH]c1=O` (centres undefined) the Potency was inconclusive: 29.1 µM [rising, single point]. In the case of `Cc1cc(C(=O)COc2cccnc2[N+](=O)[O-])c(C)n1Cc1ccco1`, the Potency is reported as inconclusive: 20.6 µM [cytotoxic, single point]. In the case of `COc1ccc(CNC(=O)C[C@H]2C(=O)N(CCc3ccccc3)C[C@@H]2Cc2ccccc2)cc1`, the Potency is reported as inconclusive: 14.6 µM [cytotoxic, partial curve, poor fit]. In the case of `CC(=O)N1CC(c2ccccc2)C(c2ccc(Cl)cc2)=N1` (centres undefined), the “activity change, negative = cytotoxic” value is reported as inactive: -12.2%. For `CCn1cc(C(=O)N2CCN(c3cc(C)ccc3C)CC2)c(=O)c2cc(S(=O)(=O)N(C)C3CCCCC3)ccc21`, the Potency was inconclusive: 29.1 µM [cytotoxic, single point]. In the case of `CC(C)NCC(O)COC1CCC(C(C)(C)C)CC1` (centres undefined), the Potency is reported as active: 23.1 µM. In the case of `CCN(CC)CCCN(Cc1cc2cc3c(cc2[nH]c1=O)OCO3)C(=S)Nc1ccccc1`, the Potency is reported as inconclusive: 1.46 µM [rising, full curve, poor fit]. In the case of `CCOC(=O)C(=Cc1ccc(-n2cncn2)cc1)C(=O)OCC`, the Potency is reported as inconclusive: 23.1 µM [cytotoxic, single point]. In the case of `Cc1cnc(C(=O)Nc2ccc(C(C)C)cc2)cn1`, the Potency is reported as inconclusive: 23.1 µM [cytotoxic, single point]. With `CC(=O)Nc1cccc(NC(=O)c2cc(-c3cccnc3)nc3ccc(Cl)cc23)c1` the “activity change, negative = cytotoxic” value was inactive: 16.7%. With `O=C(NCCc1nc2ccccc2[nH]1)c1ccc(F)cc1` the Potency was inconclusive: 32.6 µM [cytotoxic, single point]. In the case of `CCN(c1ccccc1)S(=O)(=O)c1ccc(NC(=O)c2cc(=O)c3cc(C)c(C)cc3o2)cc1`, the “activity change, negative = cytotoxic” value is reported as inactive: 11.4%. For `COc1cccc(NC(=O)CN(C)C(=O)c2cc(-c3cccc(Br)c3)nc3ccccc23)c1`, the Potency was inconclusive: 20.6 µM [cytotoxic, single point]. For `CCOc1ccc(/C=N/NC(=O)c2cc3c(OC)cccc3[nH]2)cc1`, the “activity change, negative = cytotoxic” value was inactive: -3.83%. With `O=C(Nc1ccc(CN2CCS(=O)(=O)CC2)cc1)c1ccc(C(F)(F)F)cc1` the Potency was inconclusive: 23.1 µM [cytotoxic, single point]. For `COc1ccc(/C(C)=N/OCC(=O)Nc2nc3ccccc3s2)cc1OC`, the Potency was inconclusive: 16.4 µM [rising, partial curve]. For `COc1ccc(NC(=O)CN(C)C(=O)c2cccc(S(=O)(=O)N3CCN(Cc4ccccc4)CC3)c2)cc1`, the activity change, negative = cytotoxic was inconclusive: -34.4% [cytotoxic]. For `COc1ccccc1C1=NNC(=Nc2cccc(S(=O)(=O)N(C)C)c2)SC1`, the Potency was inconclusive: 29.1 µM [cytotoxic, single point]. In the case of `O=S(=O)(O)c1cnccc1Nc1cccc(C(F)(F)F)c1`, the Potency is reported as inconclusive: 0.0259 µM [rising, full curve]. With `CC(=O)Nc1cccc(OCCCNC(=O)c2ccc(C(C)(C)C)cc2)c1` the Potency was inconclusive: 29.1 µM [cytotoxic, single point]. For `O=c1cc(CO)oc(C(Nc2ccccn2)c2ccccc2F)c1O` (centres undefined), the Potency was inconclusive: 0.731 µM [rising, full curve]. In the case of `CC12CCC(=O)N1C(C(=O)Nc1cc(C(F)(F)F)ccc1N1CCCCC1)CS2` (centres undefined), the “activity change, negative = cytotoxic” value is reported as inactive: -18.9%. For `CCC(=Nc1ccccc1O)C1=C(O)CC(c2ccccc2)CC1=O` (centres undefined), the Potency was inconclusive: 6.51 µM [cytotoxic, partial curve, poor fit]. In the case of `CCN(CC)Cc1c(O)ccc2occ(C(=O)c3ccc(OC)cc3)c12`, the Potency is reported as inconclusive: 29.1 µM [cytotoxic, single point]. With `Cc1c(C(=O)N2CCN(S(=O)(=O)c3cccs3)CC2)oc2ccc(F)cc12` the “activity change, negative = cytotoxic” value was inactive: -12.4%. In the case of `CCOc1ccc(OCC)c(NC(=O)CCc2c(C)nc3c(c2C)c(=O)n(C)c(=O)n3C)c1`, the “activity change, negative = cytotoxic” value is reported as inactive: 0%. For `CCOc1cc2[nH]c(=S)n(CCCC(=O)NCc3ccccn3)c(=O)c2cc1OCC`, the activity change, negative = cytotoxic was inconclusive: 8.81%. In the case of `O=c1[nH]c2ccccc2[n+]([O-])c1-c1ccccc1`, the “activity change, negative = cytotoxic” value is reported as inactive: 13.5%. With `CCc1nnc(N/N=C/c2cc(Br)c(O)cc2O)n1N` the Potency was inconclusive: 25.9 µM [cytotoxic, partial curve, poor fit]. In the case of `N#Cc1c(-c2ccccc2)c(-c2ccccc2)nn(CC(=O)NNC(=O)Nc2ccccc2)c1=O`, the Potency is reported as active: 5.8 µM. In the case of `NS(=O)(=O)c1ccc(-c2cccc(/C=C3\SC(=O)NC3=O)c2)cc1`, the Potency is reported as inconclusive: 14.6 µM [cytotoxic, partial curve, poor fit]. With `CCC(=O)n1nc(-c2cccnc2)nc1NCc1ccc(OC)cc1` the Potency was inconclusive: 11.6 µM [rising, single point]. For `COc1ccc(CC(NC(C)=O)C(=O)NC2CCN(c3nc(C)cc(C)c3C#N)CC2)cc1OC` (centres undefined), the “activity change, negative = cytotoxic” value was inactive: 4.46%. In the case of `Cc1ccc(OC(C)C(=O)OCC(=O)Nc2sccc2C(N)=O)cc1` (centres undefined), the “activity change, negative = cytotoxic” value is reported as inactive: 3.13%. For `CC(=O)N1CCN(c2ccc(Oc3ccc([N+](=O)[O-])c(C(F)(F)F)c3)cc2)CC1`, the Potency was inconclusive: 25.9 µM [cytotoxic, single point]. In the case of `COc1ccc2c(c1)c(C)cc[n+]2Cc1ccccc1`, the Potency is reported as active: 8.2 µM. For `COc1ccc(CNC(=O)c2ccc3c(c2)nc2n3CCCCC2)c(OC)c1`, the Potency was inconclusive: 29.1 µM [rising, single point]. In the case of `Cc1c(NC(=O)/C=C/c2cn(-c3ccccc3)nc2-c2ccc(F)cc2)c(=O)n(-c2ccccc2)n1C`, the Potency is reported as inconclusive: 32.6 µM [cytotoxic, single point]. In the case of `O=C(O)C1CC=CCC1C(=O)Nc1cccnc1` (centres undefined), the “activity change, negative = cytotoxic” value is reported as inactive: -5.25%. With `CCOC(=O)C1(S(=O)(=O)c2ccccc2)CCN(Cc2ccc(Cl)cc2)CC1` the Potency was inconclusive: 20.6 µM [cytotoxic, single point]. With `Cc1cc(C(=O)NCCc2ccccc2)ccc1[N+](=O)[O-]` the “activity change, negative = cytotoxic” value was inactive: -0.751%. In the case of `COC(=O)[C@]12CCCCC=C1N(Cc1cccc3ccccc13)C(=O)[C@H](CC(=O)NCC13CC4CC(CC(C4)C1)C3)C2`, the Potency is reported as inconclusive: 29.1 µM [cytotoxic, single point]. In the case of `CCN(CC)CCNC(=O)c1ccc(NC(=O)c2ccc(COc3ccccc3)cc2)cc1`, the Potency is reported as inconclusive: 29.1 µM [cytotoxic, single point]. For `C/C(=N\NC(=O)C(=O)Nc1ccc(C)c(Cl)c1)c1ccncc1`, the “activity change, negative = cytotoxic” value was inactive: 3.01%. For `COc1ccc(C(=O)N2CCc3cc(OC)c(OC)cc3C2COc2ccc3c(C)cc(=O)oc3c2)c(OC)c1` (centres undefined), the Potency was inconclusive: 20.6 µM [cytotoxic, partial curve, poor fit]. For `Cc1ccc(OCCC(=O)OCC(=O)NC(=O)NC2CCCC2)cc1`, the “activity change, negative = cytotoxic” value was inactive: -9.39%. With `C[C@H](NC(=O)[C@@H]1CCCN1C(=O)[C@@H]1CCCN1)c1ccccc1` the “activity change, negative = cytotoxic” value was inactive: 13.6%. For `O=C(CCC(=O)c1cccs1)NNC(=O)c1ccc(Cl)cc1`, the Potency was inconclusive: 9.2 µM [rising, partial curve, poor fit]. For `Cc1cccc(C)c1-n1cccc1/C=C1\SC(=S)N(c2cccc(C(=O)O)c2)C1=O`, the “activity change, negative = cytotoxic” value was inactive: -9.03%. With `O=C1c2c(-c3ccc(Br)cc3)noc2CCN1Cc1cn(-c2ccccc2)nn1` the Potency was inconclusive: 20.6 µM [cytotoxic, single point]. With `O=C(C[C@H]1CC[C@@H]2[C@H](COC[C@H](O)CN2Cc2cccc(C(F)(F)F)c2)O1)NCCc1ccccc1` the “activity change, negative = cytotoxic” value was inactive: -11.6%.
